Measured data: PubChem BioAssay AID1053208 (Peter MacCallum Cancer Centre, 2014)
Here is an unselected part of about 17,000 deposited reagents. Of all reagents, 788 (4.7%) got an active call. 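Calls rest on z-score classes alone; an extra cut-off of viability at most 70% of control was not applied to them.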 Entries without a mark were called inactive. The numbers tell different reagents against one gene apart. Further read-outs or replicates are left out here.

Screen: 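Synthetic lethal interactions between gene loss and doxorubicin in osteosarcoma cells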 (primary screen)
System: mouse osteosarcoma cells, early-passage culture from an engineered mouse model of fibroblastic bone tumour
Knock-down reagent: siRNA pool against mouse genes, 40 nM
Timing: about 120 h (48 h before drug, then 72 h with drug)
Treatment: doxorubicin 100 nM for 72 h, roughly 30-40% inhibitory dose
Detection: 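Luminescent ATP signal taken as viability with or without 100 nM doxorubicin for 72 h; mean of two wells set against non-targeting siRNA and turned into robust z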
Direction: viability z-score with doxorubicin: higher = more viable cells under doxorubicin; viability z-score without drug: higher = more viable cells with knock-down alone
Call rule: 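Called active if knock-down leaves viability unchanged without drug (z within -2 to 2) but lowers it with doxorubicin (z at or under -2)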

| target gene | reagent | combined z-score class | viability z-score with doxorubicin | viability z-score without drug |
| --- | --- | --- | --- | --- |
| Nudt16 (nudix hydrolase 16) | 1 | no change with or without drug | -0.9 | 0.84 |
| Dctd (dCMP deaminase) | 1 | no change with or without drug | 1.35 | 0.34 |
| Dido1 (death inducer-obliterator 1) | 1 | low cell count with and without drug | -2.59 | -2.36 |
| Dido1 (death inducer-obliterator 1) | 2 | no change with or without drug | 0 | 0.84 |
| Pglyrp4 (peptidoglycan recognition protein 4) | 1 | low cell count with doxorubicin only (active) | -2.7 | -1.18 |
| Clcn6 (chloride channel, voltage-sensitive 6) | 1 | no change with or without drug | -1.35 | 0.34 |
| Sec16b (SEC16 homolog B, endoplasmic reticulum export factor) | 1 | no change with or without drug | 0.9 | 0.67 |
| Tfg (Trk-fused gene) | 1 | no change with or without drug | 0 | 0.51 |
| 1700018B08Rik (RIKEN cDNA 1700018B08 gene) | 1 | no change with or without drug | -0.9 | -0.84 |
| Ky (kyphoscoliosis peptidase) | 1 | low cell count without drug only | -1.91 | -2.19 |
| 4933421I07Rik (RIKEN cDNA 4933421I07 gene) | 1 | no change with or without drug | -0.22 | 0.51 |
| Or5t18 (olfactory receptor family 5 subfamily T member 18) | 1 | no change with or without drug | -0.67 | -0.67 |
| Acss3 (acyl-CoA synthetase short-chain family member 3) | 1 | no change with or without drug | -1.12 | -0.84 |
| Pik3ap1 (phosphoinositide-3-kinase adaptor protein 1) | 1 | no change with or without drug | -0.22 | 0.34 |
| Fxyd5 (FXYD domain-containing ion transport regulator 5) | 1 | no change with or without drug | -1.24 | 0.67 |
| Ggt1 (gamma-glutamyltransferase 1) | 1 | no change with or without drug | 0.56 | -0.17 |
| Mrps6 (mitochondrial ribosomal protein S6) | 1 | no change with or without drug | 1.24 | 0 |
| Nus1 (NUS1 dehydrodolichyl diphosphate synthase subunit) | 1 | no change with or without drug | -0.45 | -1.35 |
| Rpl8 (ribosomal protein L8) | 1 | low cell count with and without drug | -7.19 | -8.09 |
| Ankrd13d (ankyrin repeat domain 13 family, member D) | 1 | no change with or without drug | -0.9 | -0.34 |
| Btbd1 (BTB domain containing 1) | 1 | no change with or without drug | 1.12 | 0.84 |
| Slc25a35 | 1 | no change with or without drug | 0.11 | 0.17 |
| Plscr4 (phospholipid scramblase 4) | 1 | no change with or without drug | -0.11 | 0.51 |
| Men1 (multiple endocrine neoplasia 1) | 1 | no change with or without drug | -0.22 | 0.51 |
| Gpx1 (glutathione peroxidase 1) | 1 | no change with or without drug | -0.22 | -0.51 |
| Gpn3 (GPN-loop GTPase 3) | 1 | no change with or without drug | 1.24 | -1.18 |
| Tmlhe (trimethyllysine hydroxylase, epsilon) | 1 | high cell count without drug only | 1.8 | 3.04 |
| Vmn1r64 (vomeronasal 1 receptor 64) | 1 | low cell count with doxorubicin only (active) | -2.14 | -1.01 |
| Serpinb9 (serine (or cysteine) peptidase inhibitor, clade B, member 9) | 1 | no change with or without drug | -0.22 | 0.51 |
| Or5aq7 (olfactory receptor family 5 subfamily AQ member 7) | 1 | no change with or without drug | 0.67 | 0.51 |
| Or5d43 (olfactory receptor family 5 subfamily D member 43) | 1 | no change with or without drug | -1.57 | -1.35 |
| Cfap95 (cilia and flagella associated protein 95) | 1 | no change with or without drug | -0.11 | 0.51 |
| Polr3f (polymerase (RNA) III (DNA directed) polypeptide F) | 1 | no change with or without drug | 1.46 | 0.51 |
| Arhgef16 (Rho guanine nucleotide exchange factor 16) | 1 | no change with or without drug | 0.22 | 1.85 |
| Ifitm5 (interferon induced transmembrane protein 5) | 1 | no change with or without drug | -1.12 | -0.51 |
| Ipmk (inositol polyphosphate multikinase) | 1 | no change with or without drug | 1.12 | -0.84 |
| Cox6a1 (cytochrome c oxidase subunit 6A1) | 1 | no change with or without drug | -0.45 | 0 |
| Tpp2 (tripeptidyl peptidase II) | 1 | no change with or without drug | 0.11 | 0.84 |
| Epsti1 (epithelial stromal interaction 1) | 1 | no change with or without drug | -1.46 | 1.52 |
| Adarb2 (adenosine deaminase, RNA-specific, B2) | 1 | no change with or without drug | 0 | 1.01 |
| Or52ae7 (olfactory receptor family 52 subfamily AE member 7) | 1 | no change with or without drug | 0 | -1.18 |
| Apba1 (amyloid beta precursor protein binding family A member 1) | 1 | no change with or without drug | -0.67 | 0.51 |
| Mapk13 (mitogen-activated protein kinase 13) | 1 | no change with or without drug | -0.11 | -0.51 |
| Spink12 (serine peptidase inhibitor, Kazal type 12) | 1 | no change with or without drug | -0.45 | 0 |
| Slc5a2 | 1 | no change with or without drug | 0.45 | 0.84 |
| Ubtd2 (ubiquitin domain containing 2) | 1 | no change with or without drug | -0.22 | -0.17 |
| Egf (epidermal growth factor) | 1 | no change with or without drug | 0.67 | 1.18 |
| Rnf5 (ring finger protein 5) | 1 | no change with or without drug | 0.22 | 0.17 |
| Bmp7 (bone morphogenetic protein 7) | 1 | no change with or without drug | -0.45 | 0 |
| Spata6 (spermatogenesis associated 6) | 1 | no change with or without drug | 0.79 | -0.84 |
